This is one part of the list. These are further read-outs of the screen, such as a control signal, another cell line or another target. No call is given for them. Most of these compounds were active or inconclusive in the main read-out, so they are no random draw. Words in brackets tell the shape of the fitted curve; partial curves, single points and poor fits give uncertain potencies.
Experiment: qHTS Assay for Lipid Storage Modulators in Drosophila S3 Cells;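 as to cell number change: cells counted by Cell Tracker Red CMTPX staining in the red channel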
Details: BODIPY lipid droplet fluorescence, 18-24 h; for cell number change: measured here: cell count max response, cells fed with added oleic acid
Method in brief: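 Drosophila S3 cells got compounds at several concentrations plus oleic acid (400 uM solution). Laser-scanning cytometry with 488 nm excitation read lipid droplets at 500-530 nm and cells at 575-640 nm. Percent activity was relative to 20 uM Triacsin C.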

[1] = measured here: cell number channel AC50, cells fed with added oleic acid
[2] = measured here: lipid fluorescence (Fed channel) AC50, cells fed with added oleic acid

SMILES	cell number change	AC50 [1]	AC50 [2]
O=C(Nc1ccccc1)N1CCC(C(=O)N2CCN(Cc3ccccc3)CC2)CC1	-40.6%	0.731 µM [falling, full curve]	16.4 µM [falling, partial curve]
COc1ccc(S(=O)(=O)n2ccc(C)n2)cc1C	-6.92%	–	0.13 µM [rising, full curve, poor fit]
CC(C)(C)NC(=O)C1CCN(S(=O)(=O)c2cccc(C(F)(F)F)c2)CC1	–	–	0.082 µM [falling, full curve, poor fit]
Cc1cc(C)n2cc(CSC3=NCCS3)nc2n1	-16.8%	–	–
CCN1/C(=C\C=C2\C(=O)N(c3ccccc3)C(=S)N2C)Sc2ccccc21	-1.65%	–	1.3 µM [falling, full curve, poor fit]
Cc1nc(=O)c(-c2ccccc2)c(C)n1-c1ccccc1C(=O)O	-23.5%	–	2.06 µM [falling, full curve]
S=C(c1ccc(-c2ccc(Cl)c(Cl)c2)o1)N1CCOCC1	–	–	0.411 µM [falling, single point]
O=C(NCCc1ccccn1)c1cccc(S(=O)(=O)N2CCCCCC2)c1	-19.5%	–	10.3 µM [rising, partial curve]
O=C(Cc1ccccc1)Nc1cccc(S(=O)(=O)N2CCCCCC2)c1	-8.17%	–	6.51 µM [rising, single point]
CC(C)(CO)NCC(O)Cn1cc(C=O)c2ccccc21 (stereo not given)	25.5%	–	13 µM [rising, single point]
COc1cc(/C=C2\SC(=Nc3ccc(N4CCOCC4)cc3)N(C)C2=O)ccc1OC(C)C(=O)O (stereo not given)	2.65%	–	–
CCOC(=O)N1CCN(c2ncnc3c2[nH]c2ccc(F)cc23)CC1	-30.9%	4.61 µM [falling, full curve, poor fit]	13 µM [falling, partial curve]
CCC(C)NC(=O)CN1C(=O)NC2(CCOc3ccccc32)C1=O (stereo not given)	-8.11%	–	6.51 µM [falling, single point]
CCCCOc1ccc(C(=O)NCC(=O)NCC(c2cccs2)N2CCOCC2)cc1 (stereo not given)	6.27%	–	29.1 µM [rising, single point]
CCOc1ccc2ccccc2c1CNCCN1CCOCC1	9.08%	–	4.11 µM [falling, single point]
CCCCN(CC(=O)NC1CCCC1)C(=O)C(=O)Nc1ccc2c(c1)OCCO2	9.46%	–	29.1 µM [falling, single point]
O=C(c1ccncc1)N1CCN(C2CCC(c3ccccc3)CC2)CC1 (stereo not given)	-11.2%	–	6.51 µM [falling, single point]
Cc1ccc(S(=O)(=O)N2CCOCC2)cc1C(=O)OCC(=O)c1ccc[nH]1	16.7%	–	0.517 µM [rising, full curve, poor fit]
Cc1ccc(N(CC(=O)NCc2ccc(F)cc2)S(=O)(=O)c2cccs2)cc1	79.7%	4.61 µM [rising, partial curve]	0.58 µM [rising, single point]

Ordered by length of the SMILES (largest number first): 3 of the compounds above.
SMILES	cell number change	AC50 [1]	AC50 [2]
CC(C)(C)NC(=O)C1CCN(S(=O)(=O)c2cccc(C(F)(F)F)c2)CC1	–	–	0.082 µM [falling, full curve, poor fit]
CCCCN(CC(=O)NC1CCCC1)C(=O)C(=O)Nc1ccc2c(c1)OCCO2	9.46%	–	29.1 µM [falling, single point]
O=C(Cc1ccccc1)Nc1cccc(S(=O)(=O)N2CCCCCC2)c1	-8.17%	–	6.51 µM [rising, single point]

The listing continues.

SMILES	cell number change	AC50 [1]	AC50 [2]
CC1CCCCN1CCNC(=O)C1CCCN(c2ncnc3c2nc2n3CCCCC2)C1 (stereo not given)	–	–	6.51 µM [rising, single point]
NC(=O)CC(NC(=O)c1ccc(Br)cc1)c1ccc(N2CCN(c3ccccc3)CC2)c([N+](=O)[O-])c1 (stereo not given)	-6.15%	–	29.1 µM [falling, single point]
Cc1cc(C)c(OCC(=O)N(Cc2ccccc2)C2CCS(=O)(=O)C2)c(C)c1 (stereo not given)	-34.9%	29.1 µM [falling, single point]	–
Cc1ccccc1NCC(=O)N/N=C\c1ccc2c(c1)OCO2	83.5%	8.2 µM [rising, partial curve]	–
O=C(CSCc1ccc(Cl)cc1)Nc1nccs1	153%	29.1 µM [rising, single point]	0.651 µM [rising, single point]
O=C(NCCCN1CCN(CCCNC(=O)c2ccc3c(c2)OCO3)CC1)c1ccc2c(c1)OCO2	–	6.51 µM [falling, single point]	6.51 µM [falling, single point]
COc1ccc(OC)c(NC(=O)COc2ccc(S(=O)(=O)NC(C)C)cc2)c1	4.1%	–	0.58 µM [rising, single point]
O=[N+]([O-])c1ccccc1/C=C/C=N/n1c(-c2ccccc2F)n[nH]c1=S	4.33%	–	–
COc1ccc2[nH]c3c(c2c1)CCN1C(=O)N([C@@H](C)C(=O)NC2CCCCC2C)C(=O)[C@]31C (stereo not given in full)	-11.3%	–	2.06 µM [falling, full curve, poor fit]
O=C(/C=N/O)NCC1CCNCC1	4.3%	–	0.517 µM [falling, full curve]
Cc1ccc(CCNC(=O)CN2CCN(Cc3ccccc3F)C2=O)cc1	36.3%	0.0517 µM [rising, full curve, poor fit]	–
Cc1ccc(S(=O)(=O)N2CCC3(CC2)OCCO3)s1	13.5%	–	3.66 µM [falling, single point]
O=C(COc1ccc(Cl)cc1Br)Nc1cccc(S(=O)(=O)N2CCCC2)c1	34.8%	20.6 µM [rising, partial curve]	–
COc1ccccc1N1CCN(C2CCC(C)CC2)CC1 (stereo not given)	-5.25%	–	–
CC(C)NC(=O)c1ccc(CSCc2ccccc2Cl)o1	-27.7%	0.103 µM [falling, full curve, poor fit]	5.8 µM [falling, full curve, poor fit]
CC(Nc1cc(N2CCN(S(=O)(=O)N(C)C)CC2)ccc1[N+](=O)[O-])c1ccccc1 (stereo not given)	-18.2%	0.461 µM [falling, single point]	0.517 µM [falling, full curve]
CCCN(C(=O)c1ccc(N(C)S(=O)(=O)c2ccc(C)cc2)cc1)C1CCS(=O)(=O)C1 (stereo not given)	58.9%	8.2 µM [rising, partial curve]	–
CC(C)C[C@H](NC(=O)Nc1cccc(Br)c1)C(=O)O	–	–	1.03 µM [falling, full curve]
COC(=O)c1ccccc1NC1=C/C(=N\S(=O)(=O)c2cccs2)c2ccccc2C1=O	-91.4%	25.9 µM [falling, partial curve]	29.1 µM [falling, single point]

From PubChem BioAssay AID2685 (National Center for Advancing Translational Sciences (NCATS), 2010)
